{"source": "paper PMC10553830", "about": "“Functional and structural analyses reveal that a dual domain sialidase protects bacteria from complement killing through desialylation of complement factors” (PLOS Pathogens, 2023)", "target": "T1, recombinant CBM protein (N-terminal carbohydrate-binding module of PG0352) (Porphyromonas gingivalis W83) (UniProt Q7MX62)", "T1 sequence": "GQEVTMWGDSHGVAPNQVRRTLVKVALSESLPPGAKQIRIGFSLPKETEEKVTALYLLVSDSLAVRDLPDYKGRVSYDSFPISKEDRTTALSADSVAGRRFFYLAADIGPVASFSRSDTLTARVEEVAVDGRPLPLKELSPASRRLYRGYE", "test": "affinity purification with mass spectrometry; rCBM (or control PG1589) bound to Ni-NTA agarose, incubated with human serum diluted to 50% (v/v) in PBS overnight at 4°C; washed with 300 mM NaCl, 50 mM NaH2PO4, 10 mM imidazole, pH 8.0; SDS-PAGE, bands excised for nano-LC-MS/MS; only the target purified", "note": "No constants are given. Whether binding was seen depends on the method and setting. Binding seen in cells or lysates may run through a third protein. These calls come from enrichment with a bait or labelling near it, and not all partners need be listed."}
{"substance": "immunoglobulin lambda-like polypeptide 5 (from UniProt B9A064 36-214)", "values": [{"measurement": "binding", "result": "binds"}]}
